The text below walks through data of PMC8833913.

Sequences of proteins named here, by UniProt entry; tags and fusion partners are left off.
UniProt P40337: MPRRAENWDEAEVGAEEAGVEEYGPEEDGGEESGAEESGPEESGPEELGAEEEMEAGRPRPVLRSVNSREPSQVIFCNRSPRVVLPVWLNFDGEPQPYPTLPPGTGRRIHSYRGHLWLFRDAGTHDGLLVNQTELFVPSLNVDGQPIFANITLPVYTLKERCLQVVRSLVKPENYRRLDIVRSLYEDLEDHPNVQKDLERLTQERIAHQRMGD

No constants are given. Whether binding was seen depends on the method and setting. In cells and extracts the contact can be indirect. Some entries that bind do so weakly or less than the wild type.

This test addresses T1, nuclear factor kappa B subunit 2 (NFKB2) (human (endogenous in 786-O)) (UniProt Q00653).
T1 sequence: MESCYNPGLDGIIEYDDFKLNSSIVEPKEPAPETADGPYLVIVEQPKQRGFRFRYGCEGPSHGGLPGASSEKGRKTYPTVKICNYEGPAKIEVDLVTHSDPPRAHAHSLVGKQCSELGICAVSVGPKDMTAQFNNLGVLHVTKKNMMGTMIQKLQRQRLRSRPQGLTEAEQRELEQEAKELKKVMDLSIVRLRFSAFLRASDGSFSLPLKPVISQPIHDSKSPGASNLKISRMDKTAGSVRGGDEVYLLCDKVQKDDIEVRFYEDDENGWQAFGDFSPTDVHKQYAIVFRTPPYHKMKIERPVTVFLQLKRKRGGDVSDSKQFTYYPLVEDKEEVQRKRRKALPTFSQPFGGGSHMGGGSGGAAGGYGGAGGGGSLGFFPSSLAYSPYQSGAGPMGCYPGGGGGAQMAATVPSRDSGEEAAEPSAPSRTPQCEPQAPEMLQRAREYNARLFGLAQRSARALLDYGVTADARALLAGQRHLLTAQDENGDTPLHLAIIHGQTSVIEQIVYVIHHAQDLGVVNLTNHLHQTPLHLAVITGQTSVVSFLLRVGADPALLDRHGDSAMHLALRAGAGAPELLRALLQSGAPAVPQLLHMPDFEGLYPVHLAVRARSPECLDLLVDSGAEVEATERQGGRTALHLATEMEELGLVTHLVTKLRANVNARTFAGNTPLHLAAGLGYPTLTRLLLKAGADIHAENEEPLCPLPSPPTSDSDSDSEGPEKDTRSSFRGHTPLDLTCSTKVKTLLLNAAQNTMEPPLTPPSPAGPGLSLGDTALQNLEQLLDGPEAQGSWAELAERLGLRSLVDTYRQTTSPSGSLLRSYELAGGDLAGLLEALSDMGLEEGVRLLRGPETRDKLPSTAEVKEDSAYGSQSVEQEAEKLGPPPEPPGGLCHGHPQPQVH
The test is described as follows: co-IP; lysates of 786-O-Ctrl and 786-O-VHL cells immunoprecipitated overnight with anti-NFKB2 (1:100) or control IgG, Protein G Sepharose 1 h, three washes with cell lysis buffer, immunoblot with anti-NFKB2 or anti-VHL. A general note: In western blotting, separated proteins are transferred to a membrane and probed.

As for “HA-tagged human VHL protein (von Hippel-Lindau) (from UniProt P40337 1-213)”, the binding entry was “binds”.
